This passage reports binding results from patent US20120071419A1.

Amino acid sequences for entries named in this document (tags omitted). A change or cut given only in a name is not applied to a line headed by its entry. Chains listed by the source or under a name are the forms on record and can include a tag or linker.
clone 8 of the 1OZJ scaffold (P84022, form named): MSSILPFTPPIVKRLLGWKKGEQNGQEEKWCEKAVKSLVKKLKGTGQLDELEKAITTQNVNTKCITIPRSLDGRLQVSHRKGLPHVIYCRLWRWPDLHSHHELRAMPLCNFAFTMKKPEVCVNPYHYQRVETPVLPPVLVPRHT
clone 24 of the 1OZJ scaffold (P84022, form named): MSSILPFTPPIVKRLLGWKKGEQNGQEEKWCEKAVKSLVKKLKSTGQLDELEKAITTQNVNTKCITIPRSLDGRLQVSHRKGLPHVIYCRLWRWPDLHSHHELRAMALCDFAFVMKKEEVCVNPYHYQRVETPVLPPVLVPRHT
clone 34 of the 1OZJ scaffold (P84022, form named): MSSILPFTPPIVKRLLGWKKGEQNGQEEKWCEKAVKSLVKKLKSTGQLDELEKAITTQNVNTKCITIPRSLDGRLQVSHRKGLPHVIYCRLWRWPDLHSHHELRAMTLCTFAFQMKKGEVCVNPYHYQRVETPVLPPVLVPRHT
clone 35 of the 1OZJ scaffold (P84022, form named): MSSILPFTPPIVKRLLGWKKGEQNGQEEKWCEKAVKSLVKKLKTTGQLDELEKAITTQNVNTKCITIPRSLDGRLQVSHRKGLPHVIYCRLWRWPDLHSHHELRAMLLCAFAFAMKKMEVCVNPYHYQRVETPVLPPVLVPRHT
clone 31 of the 1OZJ scaffold (P84022, form named): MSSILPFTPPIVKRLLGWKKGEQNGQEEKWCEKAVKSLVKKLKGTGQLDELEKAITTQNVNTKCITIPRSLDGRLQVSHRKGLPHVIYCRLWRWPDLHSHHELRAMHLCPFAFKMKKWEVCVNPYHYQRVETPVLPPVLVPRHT
clone 43 of the 1OZJ scaffold (P84022, form named): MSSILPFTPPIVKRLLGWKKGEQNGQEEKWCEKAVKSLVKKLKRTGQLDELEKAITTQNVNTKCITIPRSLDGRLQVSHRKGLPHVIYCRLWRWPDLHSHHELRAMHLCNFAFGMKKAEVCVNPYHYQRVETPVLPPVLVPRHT
clone 53 of the 1OZJ scaffold (P84022, form named): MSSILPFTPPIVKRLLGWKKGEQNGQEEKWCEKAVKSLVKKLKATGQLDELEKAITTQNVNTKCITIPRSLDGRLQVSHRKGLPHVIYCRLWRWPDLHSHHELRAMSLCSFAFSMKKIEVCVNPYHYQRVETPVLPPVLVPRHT
clone 54 of the 1OZJ scaffold (P84022, form named): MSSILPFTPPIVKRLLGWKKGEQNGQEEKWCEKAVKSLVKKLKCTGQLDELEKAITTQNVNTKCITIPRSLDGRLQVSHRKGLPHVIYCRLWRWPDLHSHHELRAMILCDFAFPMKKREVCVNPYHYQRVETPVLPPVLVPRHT
clone 55 of the 1OZJ scaffold (P84022, form named): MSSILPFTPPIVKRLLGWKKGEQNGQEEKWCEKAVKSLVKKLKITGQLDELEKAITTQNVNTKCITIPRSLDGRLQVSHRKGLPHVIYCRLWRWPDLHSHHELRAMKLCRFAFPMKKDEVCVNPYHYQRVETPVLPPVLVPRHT

These are yes or no findings as the source states them, for the method shown. Some entries that bind do so weakly or less than the wild type.

In the assay the target is EGFR (Epidermal Growth Factor Receptor) (human) (UniProt P00533). Description: phage ELISA on coated EGFR. A general note: An ELISA detects its analyte on a solid surface through an enzyme-linked reagent.
“clone 8 of the 1OZJ scaffold (from UniProt P84022 1-144) (designed binder)”: the binding result is reported as “binds”.
With “clone 18 of the 1OZJ scaffold (from UniProt P84022 1-144) (designed binder)”, the binding entry is recorded as “binds”.
Consider “clone 20 of the 1OZJ scaffold (from UniProt P84022 1-144) (designed binder)”, for which the binding result is on record as “binds”.
With “clone 21 of the 1OZJ scaffold (from UniProt P84022 1-144) (designed binder)”, the binding result is “binds”.
With “clone 24 of the 1OZJ scaffold (from UniProt P84022 1-144) (designed binder)”, the binding entry was “binds”.
Take “clone 31 of the 1OZJ scaffold (from UniProt P84022 1-144) (designed binder)”: the binding result is “binds”.
Consider “clone 34 of the 1OZJ scaffold (from UniProt P84022 1-144) (designed binder)”, for which the binding result was “binds”.
Consider “clone 35 of the 1OZJ scaffold (from UniProt P84022 1-144) (designed binder)”, for which the binding entry is “binds”.
The value for “clone 43 of the 1OZJ scaffold (from UniProt P84022 1-144) (designed binder)” was “binds”; that for “clone 53 of the 1OZJ scaffold (from UniProt P84022 1-144) (designed binder)” was “binds”; that for “clone 54 of the 1OZJ scaffold (from UniProt P84022 1-144) (designed binder)” was “binds”.
As to “clone 55 of the 1OZJ scaffold (from UniProt P84022 1-144) (designed binder)”, the binding entry was “binds”.
